Assay results as given in paper PMC11841255.
No constants are given. Whether binding was seen depends on the method and setting. Binding seen in cells or lysates may run through a third protein. Some entries that bind do so weakly or less than the wild type. For some assays here: Sequences can lack the tags named with a protein.

Amino acid sequences for entries named in this document (tags omitted).
UniProt Q13263: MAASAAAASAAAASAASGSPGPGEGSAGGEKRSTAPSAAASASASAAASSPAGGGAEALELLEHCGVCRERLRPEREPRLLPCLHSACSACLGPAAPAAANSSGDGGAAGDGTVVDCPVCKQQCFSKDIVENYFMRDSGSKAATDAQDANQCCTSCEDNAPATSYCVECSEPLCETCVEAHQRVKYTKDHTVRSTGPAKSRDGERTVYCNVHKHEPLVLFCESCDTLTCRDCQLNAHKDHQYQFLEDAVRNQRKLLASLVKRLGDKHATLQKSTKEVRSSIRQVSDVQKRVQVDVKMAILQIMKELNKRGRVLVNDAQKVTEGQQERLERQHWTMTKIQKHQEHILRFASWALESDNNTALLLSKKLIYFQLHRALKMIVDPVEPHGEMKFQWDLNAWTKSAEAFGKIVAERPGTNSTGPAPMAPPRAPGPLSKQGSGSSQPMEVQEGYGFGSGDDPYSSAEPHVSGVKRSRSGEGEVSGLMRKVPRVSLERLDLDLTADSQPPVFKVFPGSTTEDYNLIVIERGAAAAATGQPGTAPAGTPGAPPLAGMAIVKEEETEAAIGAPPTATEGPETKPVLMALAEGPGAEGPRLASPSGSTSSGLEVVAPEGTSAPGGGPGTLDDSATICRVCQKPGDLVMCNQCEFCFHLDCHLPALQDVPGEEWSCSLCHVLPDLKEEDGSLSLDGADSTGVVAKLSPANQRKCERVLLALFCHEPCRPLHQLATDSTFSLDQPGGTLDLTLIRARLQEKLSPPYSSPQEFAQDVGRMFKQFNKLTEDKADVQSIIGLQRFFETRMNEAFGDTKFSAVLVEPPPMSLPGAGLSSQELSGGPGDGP

Legend:
GFP-CDCA3 = target: T1, GFP-CDCA3 (UniProt Q99618); experiment: co-IP; exogenous, tagged plasmids co-transfected in 293T cells; lysate incubated with primary antibody at 4 °C for 12 h, Protein A/G magnetic beads 1 h at 4 °C, five washes, WB; in one panel GFP-CDCA3 co-transfected with HA-MYC and Flag-TRIM28 (interaction enhanced)
T1 sequence: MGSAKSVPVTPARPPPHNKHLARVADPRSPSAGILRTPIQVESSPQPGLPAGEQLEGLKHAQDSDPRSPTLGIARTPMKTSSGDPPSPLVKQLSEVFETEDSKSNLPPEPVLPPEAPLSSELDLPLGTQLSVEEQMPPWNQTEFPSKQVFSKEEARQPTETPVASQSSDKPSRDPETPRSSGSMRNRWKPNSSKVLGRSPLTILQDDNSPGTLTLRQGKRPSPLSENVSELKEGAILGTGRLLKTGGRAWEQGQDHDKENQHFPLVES

[1] = target: T2, Cell Division Cycle Associated-3 (CDCA3), endogenous (human (endogenous in UM-UC3 and T24)) (UniProt Q99618); experiment: co-IP; endogenous proteins; lysate of UM-UC3 or T24 BLCA cells incubated with primary antibody at 4 °C for 12 h, Protein A/G magnetic beads 1 h at 4 °C, five washes, WB
T2 sequence: T1 sequence

Row | Substance | binding (GFP-CDCA3) | binding [1]
1 | Flag-TRIM28 (from UniProt Q13263 1-835) | binds | 
2 | Tripartite Motif Containing 28 (TRIM28), endogenous (from UniProt Q13263 1-835) |  | binds
